From patent US10632169B2, “Methods of using GM604 in modulating ALS disease biomarkers leading to prognosis and therapeutic treatment for ALS disease” (Genervon Biopharmaceuticals, LLC, priority 2015, dated 2020)
Several values for one entry are separate records, joined by “and”; a condition that tells them apart may be missing. Identical values can stand only once. Entries after “also recorded” stand apart in the source; their conditions may differ. Part of at least one peptide drawing is inferred or uncertain, most often the ends. Residues, ends and D or L forms follow the SMILES beside them.

How the values were obtained:
PIK3C2A = test: PCR array in SH-SY5Y cells, PIK3C2A; assay type: cell-based; settings: vs control 0 HR = 1
[1] = GALS-C compassionate use, clinical observations; assay type: in vivo, human; settings: for Mouth suction of water column height: ⅛ and ¼ inch straw
Description: GALS Compassionate Use (GALS-C) A ALS patient was first diagnosed with the disease in Q1 2005 and by Q3 2008 was quadriplegic and on a ventilator. The FDA approved a compassionate-use application of the MNTF6mer known as GM604 for this patient (IND #120052) using a protocol that followed the Phase 2A trial. This program was thus dubbed GALS-C. GALS-C Study Design
8. Exploratory clinical outcome measures will include the rate of decline of the ALS Functional Rating Scale Revised (ALSFRS-R), Forced Vital Capacity (FVC), stabilization or improvement in any clonus or spasticity symptoms, speech, swallowing, drooling, lingual/oral muscle, improved time off vent (self-breathing) and any movement or increase movement of any muscle groups. To estimate the participant's rate of progression prior to treatment, an ALSFRS-R of 48 will be assumed at date of symptom onset. There will be 2 weeks of active treatment, followed by 10 weeks of assessment without active treatment.
This compassionate trial follows the similar protocol and same dosing regimen as in the Phase 2A ALS trial. 320 mg of GM604 was administered intravenously as a slow bolus, once a day for 3 times a week for 2 weeks. Patient will receive one booster dose every 12 weeks for three times after the initial 12 weeks. The patient was treated with GM604 for two weeks. After two weeks of active treatment, evaluation will be performed after the last dosing at the end of week 2 and return visits on week 6 plus evaluation on week 12, 24, 36, 48 and 60. The compassionate patient was treated for 2 weeks with six doses of 320 mg GM604 by intravenous administration and followed by 10 weeks without additional treatment. CSF and blood plasma tests and clinical evaluations were performed in various biomarkers (SOD1, Cystatin C, Tau and TDP-43).
Since the compassionate patient was very advanced, the usual clinical evaluations such as ALS functional rating scale (ALSFRS), forced vital capacity (FVC), and muscle strength were not used. The evaluation of swallowing and speech are more relevant outcomes. The sample collection of CSF by LP is difficult for the patient. The initial CSF before dosing and the CSF sample after the 6th dose were collected and analyzed. The PI and the drug Sponsor agreed to hold off the CSF sample draws until further notice

TDP-43 = test: GALS-001 Phase 2A trial, plasma TDP-43 biomarker; assay type: in vivo, human
[2] = GALS-001 Phase 2A trial, ALSFRS-R; assay type: in vivo, human
SOD1 [3] = test: GALS-C compassionate use, CSF SOD1; assay type: in vivo, human
Tau [4] = test: GALS-001 Phase 2A trial, CSF total Tau biomarker; assay type: in vivo, human
AKT1 = test: PCR array in SH-SY5Y cells, AKT1; assay type: cell-based; settings: vs control 0 HR = 1
pNFH = test: GALS-001 Phase 2A trial, CSF pNFH biomarker; assay type: in vivo, human; settings: placebo less decrease; no statistical significance
[5] = test system: SH-SY5Y neuroblastoma cells; test: DNA microarray analysis of GM6-regulated genes; assay type: cell-based
[6] = GALS-001 Phase 2A trial, Forced Vital Capacity (FVC); assay type: in vivo, human; settings: for FVC at Site 001, Mean: N 4; for FVC, Mean: Site 1 and Site 2 combined
SOD1 [7] = test: PCR array in SH-SY5Y cells, SOD1; assay type: cell-based; settings: for Fold change of SOD1 RNA, real-time quantitative PCR: vs control 0 HR = 1
Cystatin C = test: GALS-001 Phase 2A trial, CSF Cystatin C biomarker; assay type: in vivo, human
IRS2 = test: PCR array in SH-SY5Y cells, IRS2; assay type: cell-based; settings: vs control 0 HR = 1
C9orf72 = test: PCR array in SH-SY5Y cells, C9orf72; assay type: cell-based; settings: vs control 0 HR = 1
Tau [8] = test: GALS-001 Phase 2A trial, plasma total Tau biomarker; assay type: in vivo, human
[9] = SH-SY5Y cells with GM604, 12 HR
[10] = SH-SY5Y cells with GM604, 24 HR
[11] = SH-SY5Y cells with GM604, 48 HR
[12] = Source GWAS Catalog, 156 ALS genes

C[C@H](NC(=O)[C@H](Cc1ccc(O)cc1)NC(=O)[C@H](CCCNC(=N)N)NC(=O)[C@H](CO)NC(=O)[C@@H](N)Cc1ccccc1)C(=O)N[C@@H](CCCNC(=N)N)C(=O)O [GM604, FSRYAR] (H-FSRYAR-OH)
Fold change of PIK3C2A RNA, real-time quantitative PCR (PIK3C2A; SH-SY5Y cells with GM604, 2 HR): 1.73
Fold change of PIK3C2A RNA, real-time quantitative PCR (PIK3C2A; SH-SY5Y cells with GM604, 4 HR): 1.54
Fold change of PIK3C2A RNA, real-time quantitative PCR (PIK3C2A; [9]): 1.69
Fold change of PIK3C2A RNA, real-time quantitative PCR (PIK3C2A; [10]): 1.42
Fold change of PIK3C2A RNA, real-time quantitative PCR (PIK3C2A; [11]): 1.05
Swallow volume increase ([1]; 2 weeks after the two weeks treatment, vs baseline): 150%-200%
Speech (video) ([1]; Week 2 vs baseline): clearer articulation than baseline
Mouth suction of water column height ([1]; after treatment): 10-15 cm
Swallowing volume ([1]; at the end of the two weeks six-dose treatment): 20 cc
Swallowing volume ([1]; baseline): 10 cc
Mouth suction of water column height ([1]; before): 5-8 cm
Size of swallowing bursts ([1]; five weeks after treatment): 20-25 cc
Water consumed without leakage ([1]; five weeks after treatment): 240 cc
Change of plasma TDP-43 (mean of individual patients' change) (TDP-43; at 12 weeks, placebo +6%): −30%
Slope in plasma TDP-43 through week 12 (TDP-43; baseline to week 12, placebo 0.493, p=0.0078): −3.513 pg/mL/wk
TDP-43 Plasma, GM604 Treated Arm (direction) (TDP-43; p = 0.0078 slope @12 weeks, placebo increase): ↓ Reduced
Decrease in ALSFRS-R slope compared to before the treatment ([2]; active treatment group): 30%
Slope of ALSFRS-R decline ([2]; after treatment, placebo −0.034/day): -0.032 day⁻¹
Decline of ALSFRS-R score ([2]; at week 12, placebo −3.5, not significant): −2.7
Decline of ALSFRS-R score, percent ([2]; at week 12, placebo −9%): −4.7%
Slope of ALSFRS-R decline ([2]; before treatment): -0.046 day⁻¹
ALSFRS-R slope per month ([2]; vs historical placebo control of the Ceftriaxone trial −1.97, p=0.0047): −0.99
CSF SOD1, GALS-C (N = 1) (SOD1 [3]; Baseline, end stage ALS patient): 27.22 ng/mL and 27.228 ng/mL
CSF SOD1, GALS-C (N = 1) (SOD1 [3]; Visit 6 (Week 2), after 6 doses of 320 mg IV): 30.996 ng/mL
CSF SOD1, GALS-C, % Change V6 − BL (SOD1 [3]; Week 2 vs baseline): 13.84%
CSF SOD1, GALS-C, direction and interpretation (SOD1 [3]; baseline below range): ↑ = DM*
CSF Total Tau, GALS-T (N = 8), mean (Tau [4]; Baseline, before treatment): 305.03 pg/mL
CSF Total Tau, GALS-T (N = 8), mean (Tau [4]; Visit 6 (Week 2)): 303.58 pg/mL
CSF Total Tau, GALS-T, Mean % Change V6 − BL (Tau [4]; Week 2 vs baseline): −1.16%
CSF Total Tau, GALS-T, direction and interpretation (Tau [4]; baseline high end of range): ↓ = DM*
Fold change of AKT1 RNA, real-time quantitative PCR (AKT1; SH-SY5Y cells with GM604, 2 HR): 1.23
Fold change of AKT1 RNA, real-time quantitative PCR (AKT1; SH-SY5Y cells with GM604, 4 HR): 1.57
Fold change of AKT1 RNA, real-time quantitative PCR (AKT1; [9]): 1.93
Fold change of AKT1 RNA, real-time quantitative PCR (AKT1; [10]): 1.75
Fold change of AKT1 RNA, real-time quantitative PCR (AKT1; [11]): 1.36
pNFH CSF, GM604 Treated Arm (direction) (pNFH): decrease in the CSF pNPH levels
Average increase of ALS-associated genes by GM6 ([5]; 156 GWAS catalog genes, directional, P=0.002): 12.5%
Average change in expression (increased or decreased) ([5]; 156 GWAS catalog genes, not significantly greater than other genes (P=0.152)): 30.2%
Average change in expression (increased or decreased) ([5]; 198 DisGeNET genes, P=0.003): 40.5%
Average increase of ALS-associated genes by GM6 ([5]; 198 DisGeNET genes, not significantly different): 4.2%
Average increase of ALS-associated genes by GM6 ([5]; OMIM set (text prints 156 genes), P=0.001): 36.9%
Average change in expression (increased or decreased) ([5]; OMIM, 21 genes, P=0.04): 49.6%
GM6 ▴ (GM6-increased ALS-associated genes) ([5]; Source ALSoD, 78 ALS genes): 35
GM6 ▾ (GM6-decreased ALS-associated genes) ([5]; Source ALSoD, 78 ALS genes): 8
GM6 ▴ (GM6-increased ALS-associated genes) ([5]; Source DisGeNET, 198 ALS genes): 61
GM6 ▾ (GM6-decreased ALS-associated genes) ([5]; Source DisGeNET, 198 ALS genes): 37
GM6 ▴ (GM6-increased ALS-associated genes) [5, 12]: 49
GM6 ▾ (GM6-decreased ALS-associated genes) [5, 12]: 19
GM6 ▴ (GM6-increased ALS-associated genes) ([5]; Source MeSH, 609 ALS genes): 178
GM6 ▾ (GM6-decreased ALS-associated genes) ([5]; Source MeSH, 609 ALS genes): 125
GM6 ▴ (GM6-increased ALS-associated genes) ([5]; Source OMIM, 21 ALS genes): 14
GM6 ▾ (GM6-decreased ALS-associated genes) ([5]; Source OMIM, 21 ALS genes): 1
ALS-associated genes strongly altered by GM6, number ([5]; all 5 data sources combined): 89 genes
FVC, Change from Baseline, Mean ([6]; Baseline to Week 12, both sites, N 7, placebo −11.5): −4.7
FVC at Site 001, Mean ([6]; Baseline): 89.5
FVC, Mean ([6]; Baseline, N 7): 91.1
FVC at Site 001, Mean ([6]; Week 12): 84.8
FVC, Mean ([6]; Week 12, N 7): 86.4
PCR data (SH-SY5Y), SOD1 decrease (SOD1 [7]; @ 4 hr): ↓2 fold @
Fold change of SOD1 RNA, real-time quantitative PCR (SOD1 [7]; SH-SY5Y cells with GM604, 2 HR): 0.53
Fold change of SOD1 RNA, real-time quantitative PCR (SOD1 [7]; SH-SY5Y cells with GM604, 4 HR): 0.48
Fold change of SOD1 RNA, real-time quantitative PCR (SOD1 [7]; [9]): 0.76
Fold change of SOD1 RNA, real-time quantitative PCR (SOD1 [7]; [10]): 0.83
Fold change of SOD1 RNA, real-time quantitative PCR (SOD1 [7]; [11]): 0.94
Slope of CSF Cystatin C level (Cystatin C; @ week 6, placebo −2.284, no statistical significance): 0.786
Cystatin C CSF, GM604 Treated Arm (direction) (Cystatin C; @week 6, placebo decrease): ↑ Increase
CSF Cystatin C, GALS-T (N = 8), mean (Cystatin C; Baseline, before treatment): 3.11 µg/mL
CSF Cystatin C, GALS-T (N = 8), mean (Cystatin C; Visit 6 (Week 2)): 3.15 µg/mL
CSF Cystatin C, GALS-T, direction and interpretation (Cystatin C; baseline low end of range): ↑ = DM*
Fold change of IRS2 RNA, real-time quantitative PCR (IRS2; SH-SY5Y cells with GM604, 2 HR): 1.53
Fold change of IRS2 RNA, real-time quantitative PCR (IRS2; SH-SY5Y cells with GM604, 4 HR): 1.76
Fold change of IRS2 RNA, real-time quantitative PCR (IRS2; [9]): 1.92
Fold change of IRS2 RNA, real-time quantitative PCR (IRS2; [10]): 1.75
Fold change of IRS2 RNA, real-time quantitative PCR (IRS2; [11]): 1.39
Fold change of C9orf72 RNA, real-time quantitative PCR (C9orf72; SH-SY5Y cells with GM604, 2 HR): 0.53
Fold change of C9orf72 RNA, real-time quantitative PCR (C9orf72; SH-SY5Y cells with GM604, 4 HR): 0.69
Fold change of C9orf72 RNA, real-time quantitative PCR (C9orf72; [9]): 0.48
Fold change of C9orf72 RNA, real-time quantitative PCR (C9orf72; [10]): 0.72
Fold change of C9orf72 RNA, real-time quantitative PCR (C9orf72; [11]): 0.83
Total Tau Plasma below BL (Tau [8]; @ 6 weeks): 28% below BL
Total Tau Plasma, GM604 Treated Arm (direction) (Tau [8]; @ 6 weeks (visit 7), p = 0.0369 vs placebo): reduction achieved statistical significance; also recorded: reduction in plasma total Tau; also recorded: ↓ Reduced
